Some of the results follow.

Protein sequences, listed by entry. Tags and fused reporters are not part of them. Lines headed by an entry give the natural chain unless they say otherwise; changes in a name come on top.
UniProt Q6ZUX7: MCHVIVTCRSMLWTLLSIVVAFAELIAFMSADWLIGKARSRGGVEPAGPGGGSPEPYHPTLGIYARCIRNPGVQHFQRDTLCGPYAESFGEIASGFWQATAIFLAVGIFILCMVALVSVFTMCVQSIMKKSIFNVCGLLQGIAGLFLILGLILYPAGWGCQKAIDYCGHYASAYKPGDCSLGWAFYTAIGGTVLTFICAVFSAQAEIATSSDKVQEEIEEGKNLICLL
UniProt P02750: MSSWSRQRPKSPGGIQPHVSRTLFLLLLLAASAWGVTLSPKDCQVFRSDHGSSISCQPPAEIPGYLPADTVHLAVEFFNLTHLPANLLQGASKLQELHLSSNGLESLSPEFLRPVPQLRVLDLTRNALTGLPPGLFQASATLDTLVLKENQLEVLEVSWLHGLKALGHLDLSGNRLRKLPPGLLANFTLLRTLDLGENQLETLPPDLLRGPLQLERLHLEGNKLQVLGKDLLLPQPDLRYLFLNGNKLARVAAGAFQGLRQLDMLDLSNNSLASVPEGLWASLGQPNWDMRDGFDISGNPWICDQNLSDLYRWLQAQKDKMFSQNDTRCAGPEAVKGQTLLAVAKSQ
UniProt P49917: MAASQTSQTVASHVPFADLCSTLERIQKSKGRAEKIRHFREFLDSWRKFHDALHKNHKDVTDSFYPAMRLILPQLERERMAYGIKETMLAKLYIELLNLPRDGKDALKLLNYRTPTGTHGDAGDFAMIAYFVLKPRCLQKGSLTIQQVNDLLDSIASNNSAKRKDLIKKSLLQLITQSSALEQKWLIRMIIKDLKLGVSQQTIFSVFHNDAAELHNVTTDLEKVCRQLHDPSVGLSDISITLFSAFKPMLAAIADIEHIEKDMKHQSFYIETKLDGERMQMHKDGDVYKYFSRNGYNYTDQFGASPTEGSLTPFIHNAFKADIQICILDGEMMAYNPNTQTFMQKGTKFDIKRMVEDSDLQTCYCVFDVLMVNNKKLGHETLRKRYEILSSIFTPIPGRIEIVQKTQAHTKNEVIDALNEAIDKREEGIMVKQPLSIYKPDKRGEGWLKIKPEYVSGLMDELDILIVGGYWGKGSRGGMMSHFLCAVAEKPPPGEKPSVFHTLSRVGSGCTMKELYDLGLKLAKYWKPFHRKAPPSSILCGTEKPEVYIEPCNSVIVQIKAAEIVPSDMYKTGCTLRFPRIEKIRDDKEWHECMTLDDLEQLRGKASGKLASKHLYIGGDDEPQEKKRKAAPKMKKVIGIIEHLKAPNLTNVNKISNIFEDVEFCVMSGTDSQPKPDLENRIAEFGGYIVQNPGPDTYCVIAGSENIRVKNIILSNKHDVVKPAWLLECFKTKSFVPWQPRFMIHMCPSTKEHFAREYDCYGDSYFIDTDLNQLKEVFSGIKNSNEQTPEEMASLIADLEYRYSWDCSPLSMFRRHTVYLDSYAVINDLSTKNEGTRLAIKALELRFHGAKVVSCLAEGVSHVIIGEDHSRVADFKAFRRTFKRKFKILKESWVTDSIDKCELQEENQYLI
UniProt P06858: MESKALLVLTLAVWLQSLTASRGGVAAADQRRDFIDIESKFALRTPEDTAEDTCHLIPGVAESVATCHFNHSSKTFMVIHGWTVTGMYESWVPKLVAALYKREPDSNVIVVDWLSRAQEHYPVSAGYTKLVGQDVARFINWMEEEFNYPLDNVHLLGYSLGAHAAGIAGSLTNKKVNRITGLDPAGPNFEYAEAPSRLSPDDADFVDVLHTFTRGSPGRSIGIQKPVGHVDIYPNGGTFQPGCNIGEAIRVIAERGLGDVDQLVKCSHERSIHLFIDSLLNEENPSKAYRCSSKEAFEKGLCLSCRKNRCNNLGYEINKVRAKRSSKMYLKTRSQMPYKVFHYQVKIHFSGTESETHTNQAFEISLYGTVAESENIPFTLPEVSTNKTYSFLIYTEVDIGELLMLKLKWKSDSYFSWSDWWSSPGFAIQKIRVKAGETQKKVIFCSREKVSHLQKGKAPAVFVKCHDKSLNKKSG
UniProt A6NK58: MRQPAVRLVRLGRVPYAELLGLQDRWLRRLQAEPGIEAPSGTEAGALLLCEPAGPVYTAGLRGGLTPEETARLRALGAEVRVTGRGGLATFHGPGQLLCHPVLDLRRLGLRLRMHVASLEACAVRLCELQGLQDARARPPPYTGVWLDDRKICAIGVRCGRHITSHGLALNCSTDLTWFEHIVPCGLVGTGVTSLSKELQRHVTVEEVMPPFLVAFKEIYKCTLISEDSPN
UniProt Q9BT23: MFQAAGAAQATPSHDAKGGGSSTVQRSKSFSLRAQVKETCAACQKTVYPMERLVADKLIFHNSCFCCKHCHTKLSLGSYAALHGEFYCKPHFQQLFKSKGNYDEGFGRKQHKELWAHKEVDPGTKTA
UniProt Q96GY3: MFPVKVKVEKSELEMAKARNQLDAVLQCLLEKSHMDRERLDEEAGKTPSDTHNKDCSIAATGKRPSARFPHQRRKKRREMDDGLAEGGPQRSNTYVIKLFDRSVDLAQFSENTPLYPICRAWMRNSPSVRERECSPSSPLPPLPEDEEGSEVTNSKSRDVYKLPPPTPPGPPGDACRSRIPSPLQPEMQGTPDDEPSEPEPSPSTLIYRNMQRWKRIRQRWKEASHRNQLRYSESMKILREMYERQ
UniProt O75427: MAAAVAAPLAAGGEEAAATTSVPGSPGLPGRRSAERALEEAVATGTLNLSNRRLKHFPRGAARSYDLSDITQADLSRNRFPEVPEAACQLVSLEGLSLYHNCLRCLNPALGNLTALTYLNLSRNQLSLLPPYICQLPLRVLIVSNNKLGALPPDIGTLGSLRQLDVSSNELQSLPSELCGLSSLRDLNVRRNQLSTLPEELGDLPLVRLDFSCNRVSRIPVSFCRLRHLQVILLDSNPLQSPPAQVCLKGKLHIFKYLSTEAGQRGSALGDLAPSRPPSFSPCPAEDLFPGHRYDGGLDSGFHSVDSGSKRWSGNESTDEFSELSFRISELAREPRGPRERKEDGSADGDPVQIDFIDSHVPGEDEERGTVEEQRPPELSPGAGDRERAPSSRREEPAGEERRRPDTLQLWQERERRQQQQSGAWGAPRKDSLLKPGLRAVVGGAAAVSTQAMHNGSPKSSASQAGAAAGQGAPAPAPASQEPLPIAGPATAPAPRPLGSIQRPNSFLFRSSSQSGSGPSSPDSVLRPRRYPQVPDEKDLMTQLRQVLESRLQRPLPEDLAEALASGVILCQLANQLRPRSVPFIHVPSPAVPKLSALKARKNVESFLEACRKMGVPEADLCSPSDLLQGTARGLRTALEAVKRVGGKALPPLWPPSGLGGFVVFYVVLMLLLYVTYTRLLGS
UniProt Q8N3Y3: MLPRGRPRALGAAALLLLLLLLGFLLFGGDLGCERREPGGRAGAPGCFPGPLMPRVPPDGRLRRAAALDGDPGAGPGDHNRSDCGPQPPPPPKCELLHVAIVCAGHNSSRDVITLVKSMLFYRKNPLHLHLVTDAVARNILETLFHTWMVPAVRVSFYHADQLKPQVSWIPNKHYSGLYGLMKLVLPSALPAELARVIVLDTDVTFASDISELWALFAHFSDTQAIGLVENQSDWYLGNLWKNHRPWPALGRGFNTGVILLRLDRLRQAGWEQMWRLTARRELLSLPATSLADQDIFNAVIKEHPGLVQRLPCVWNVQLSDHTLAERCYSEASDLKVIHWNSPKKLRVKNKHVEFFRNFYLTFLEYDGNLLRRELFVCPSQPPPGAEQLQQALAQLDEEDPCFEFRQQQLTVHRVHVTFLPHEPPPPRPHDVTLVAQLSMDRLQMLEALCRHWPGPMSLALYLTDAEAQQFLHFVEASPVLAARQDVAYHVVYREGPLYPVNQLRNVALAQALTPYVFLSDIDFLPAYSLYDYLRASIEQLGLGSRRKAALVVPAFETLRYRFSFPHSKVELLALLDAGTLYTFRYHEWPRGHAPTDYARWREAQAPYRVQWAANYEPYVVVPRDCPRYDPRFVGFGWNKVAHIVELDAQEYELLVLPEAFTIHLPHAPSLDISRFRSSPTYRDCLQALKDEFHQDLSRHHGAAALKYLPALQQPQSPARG
UniProt P11047: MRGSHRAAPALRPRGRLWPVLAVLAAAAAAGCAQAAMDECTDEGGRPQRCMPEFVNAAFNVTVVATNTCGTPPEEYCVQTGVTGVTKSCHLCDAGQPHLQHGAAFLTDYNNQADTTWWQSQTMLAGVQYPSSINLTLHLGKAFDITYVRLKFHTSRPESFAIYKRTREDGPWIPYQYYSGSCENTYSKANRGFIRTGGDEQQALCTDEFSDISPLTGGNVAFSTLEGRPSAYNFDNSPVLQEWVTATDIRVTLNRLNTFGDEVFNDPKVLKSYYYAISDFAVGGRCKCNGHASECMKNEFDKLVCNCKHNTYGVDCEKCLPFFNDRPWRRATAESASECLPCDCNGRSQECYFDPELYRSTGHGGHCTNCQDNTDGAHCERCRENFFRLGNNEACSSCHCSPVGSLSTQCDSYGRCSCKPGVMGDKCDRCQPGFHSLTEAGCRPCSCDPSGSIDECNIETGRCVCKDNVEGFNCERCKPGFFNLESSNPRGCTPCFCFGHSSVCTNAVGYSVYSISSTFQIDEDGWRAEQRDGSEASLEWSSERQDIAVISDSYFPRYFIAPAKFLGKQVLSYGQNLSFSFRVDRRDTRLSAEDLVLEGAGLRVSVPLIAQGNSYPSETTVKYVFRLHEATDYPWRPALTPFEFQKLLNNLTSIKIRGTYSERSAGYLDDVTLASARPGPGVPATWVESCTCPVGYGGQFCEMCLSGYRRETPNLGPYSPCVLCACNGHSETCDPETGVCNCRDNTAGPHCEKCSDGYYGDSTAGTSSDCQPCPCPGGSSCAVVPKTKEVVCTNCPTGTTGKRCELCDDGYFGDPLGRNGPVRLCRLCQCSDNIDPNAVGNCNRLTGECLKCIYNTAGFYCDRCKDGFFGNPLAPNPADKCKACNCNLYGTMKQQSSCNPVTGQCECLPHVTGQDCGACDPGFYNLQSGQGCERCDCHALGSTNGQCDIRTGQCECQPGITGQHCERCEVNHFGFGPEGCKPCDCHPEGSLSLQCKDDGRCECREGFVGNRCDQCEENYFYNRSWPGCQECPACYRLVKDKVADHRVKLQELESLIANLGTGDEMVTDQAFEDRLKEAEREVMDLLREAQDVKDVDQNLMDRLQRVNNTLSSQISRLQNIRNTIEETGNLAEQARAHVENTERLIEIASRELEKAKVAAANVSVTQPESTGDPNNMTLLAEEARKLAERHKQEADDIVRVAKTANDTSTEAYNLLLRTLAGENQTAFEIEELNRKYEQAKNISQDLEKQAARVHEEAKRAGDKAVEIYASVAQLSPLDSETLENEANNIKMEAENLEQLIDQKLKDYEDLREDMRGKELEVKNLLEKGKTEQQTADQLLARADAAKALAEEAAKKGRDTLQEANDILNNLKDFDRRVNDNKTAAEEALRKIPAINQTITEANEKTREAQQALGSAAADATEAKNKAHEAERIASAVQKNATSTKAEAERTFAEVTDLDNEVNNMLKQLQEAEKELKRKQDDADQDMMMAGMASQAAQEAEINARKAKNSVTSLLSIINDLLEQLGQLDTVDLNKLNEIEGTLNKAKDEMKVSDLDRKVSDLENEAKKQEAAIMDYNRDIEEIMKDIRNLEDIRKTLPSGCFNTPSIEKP
UniProt Q96FQ7: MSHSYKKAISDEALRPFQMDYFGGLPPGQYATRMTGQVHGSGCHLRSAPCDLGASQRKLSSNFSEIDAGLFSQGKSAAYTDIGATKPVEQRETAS
UniProt Q08380: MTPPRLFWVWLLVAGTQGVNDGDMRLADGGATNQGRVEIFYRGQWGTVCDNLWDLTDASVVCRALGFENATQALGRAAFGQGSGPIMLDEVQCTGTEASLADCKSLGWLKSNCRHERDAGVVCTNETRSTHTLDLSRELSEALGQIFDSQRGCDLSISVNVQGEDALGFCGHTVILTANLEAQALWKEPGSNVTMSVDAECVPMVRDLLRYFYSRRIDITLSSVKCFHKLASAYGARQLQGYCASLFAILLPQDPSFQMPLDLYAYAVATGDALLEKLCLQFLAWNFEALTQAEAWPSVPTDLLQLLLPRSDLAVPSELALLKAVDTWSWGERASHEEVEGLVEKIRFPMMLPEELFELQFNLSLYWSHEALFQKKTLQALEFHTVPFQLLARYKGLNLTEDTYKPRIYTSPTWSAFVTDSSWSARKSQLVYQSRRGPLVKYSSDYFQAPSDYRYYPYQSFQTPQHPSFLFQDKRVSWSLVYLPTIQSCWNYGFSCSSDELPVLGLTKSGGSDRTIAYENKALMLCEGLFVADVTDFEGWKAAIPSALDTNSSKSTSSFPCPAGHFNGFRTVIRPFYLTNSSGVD
UniProt P23490: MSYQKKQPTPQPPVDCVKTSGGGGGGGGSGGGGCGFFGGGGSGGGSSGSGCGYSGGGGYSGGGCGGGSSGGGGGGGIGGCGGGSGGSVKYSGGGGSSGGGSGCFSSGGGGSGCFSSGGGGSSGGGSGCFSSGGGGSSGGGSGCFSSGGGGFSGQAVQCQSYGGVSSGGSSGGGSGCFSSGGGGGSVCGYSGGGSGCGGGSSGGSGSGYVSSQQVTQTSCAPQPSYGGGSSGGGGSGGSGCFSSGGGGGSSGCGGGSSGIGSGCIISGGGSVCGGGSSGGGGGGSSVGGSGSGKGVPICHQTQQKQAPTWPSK

22 targets from the supplement of paper PMC10849652 can be followed below.

Compound in the first assay: NCC(=O)Nc1ccc(-n2nc(C(F)(F)F)cc2-c2ccc3c(ccc4ccccc43)c2)cc1
Briefly: log2 fold change, soluble protein after heating vs DMSO (PISA); higher = thermal stabilisation; K562 cells, 10 uM, 30 min; active = over 0.2 and 3.5 SD of the protein, either way, in both replicates (recomputed). The method, boiled down: (§1)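 K562 cells at 2×10^6 cells/mL were exposed to 10 μM compound for 30 min, then aliquots were heated for 3 min across 48°C-58°C, pooled, and extracted in PBS containing 0.5% NP-40 at 4°C. The supernatant after 21,000xg for 90 min was taken as soluble protein and measured by TMTpro 16plex LC-MS/MS with channel sums equalised. Thermal stability is reported relative to control samples, with values from duplicates. Fold changes are given on a log2 scale.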
As for LHFPL2 (UniProt Q6ZUX7), the log2 fold change is inactive: 0.042.
Still for that read-out and setting: the result for LRG1 (UniProt P02750) reads inactive: -0.142.
Still for that read-out and setting: the result for LIG4 (UniProt P49917) reads inactive: -0.106; that for LRP1 (UniProt Q07954), inactive: -0.025.
On the same count and under the same terms, the result for LPL (UniProt P06858) reads inactive: 0.061; that for LIPT2 (UniProt A6NK58), inactive: 0.046.

Compound in a further assay: Nc1ccccc1NC(=O)c1ccc(CNC(=O)OCc2cccnc2)cc1 [entinostat]
The assay is described as above. Put shortly:
as §1
Turning to LIMD2 (UniProt Q9BT23), the log2 fold change is inactive: -0.052.
Still for that read-out and setting: the result for LRG1 (UniProt P02750) reads inactive: -0.064; that for LIG4 (UniProt P49917), inactive: 0.054; that for LIN37 (UniProt Q96GY3), inactive: 0.017.
Take LLGL1 (UniProt Q15334): the log2 fold change was inactive: -0.019.
Turning to LAPTM4A (UniProt Q15012), the log2 fold change is inactive: -0.085.
Same read-out and setting: the figure for LARP1B, A0A3B3ISF0 is inactive: 0.17.
On the same count and under the same terms, the result for LRCH4 (UniProt O75427) reads inactive: 0.086; that for LARGE2 (UniProt Q8N3Y3), inactive: 0.031.
The same measure, in the same setting: the figure for LCN2 isoform 2 (UniProt P80188) is inactive: 0.04.
Consider LPL (UniProt P06858), for which the log2 fold change was inactive: -0.053.
Same read-out and setting: the figure for LIPT2 (UniProt A6NK58) is inactive: -0.064.

Compound in the next assay: O=C(CCCCCCC(=O)Nc1ccccc1)NO [vorinostat]
The assay is described as above. The method, boiled down:
as §1
Take LRG1 (UniProt P02750): the log2 fold change is inactive: 0.028.
The same measure, in the same setting: the result for LEPROT (UniProt O15243) reads inactive: -0.142; that for LGMN (UniProt Q99538), inactive: 0; that for L1TD1 (UniProt Q5T7N2), inactive: 0.524.
Still for that read-out and setting: the figure for LIG4 (UniProt P49917) is inactive: 0.063; for LIN37 (UniProt Q96GY3) it is inactive: -0.061; for LATS1 (UniProt O95835) it is inactive: 0.08.
On the same count and under the same terms, the figure for LARP1B, A0A3B3ISF0 is inactive: 0.145; for LRP1 (UniProt Q07954) it is inactive: 0.246; for LRCH4 (UniProt O75427) it is inactive: -0.314.
For the target LPL (UniProt P06858), the log2 fold change was inactive: 0.039.
Still for that read-out and setting: the result for LAMC1 (UniProt P11047) reads inactive: 0.035.

Compound in another assay: O=C(CCCCCCNC(=O)c1cnc(N(c2ccccc2)c2ccccc2Cl)nc1)NO [citarinostat]
The description is as above. The method, boiled down: as §1
Consider LIMD2 (UniProt Q9BT23), for which the log2 fold change was inactive: -0.038.
The same measure, in the same setting: the result for LRG1 (UniProt P02750) reads inactive: 0.185; that for LEPROT (UniProt O15243), inactive: 0.125.
Same read-out and setting: the result for LIG4 (UniProt P49917) reads inactive: 0.19; that for LARP1B, A0A3B3ISF0, inactive: -0.414; that for LRP1 (UniProt Q07954), inactive: -0.1.
Still for that read-out and setting: the result for LRCH4 (UniProt O75427) reads inactive: -0.47; that for LINC00526 (UniProt Q96FQ7), inactive: 0.114.
On to LPL (UniProt P06858), for which the log2 fold change is inactive: -0.256.
On the same count and under the same terms, the figure for LGALS3BP (UniProt Q08380) is inactive: -0.081; for LOR (UniProt P23490) it is inactive: 0.059.
